Assay results: EP4703375A1
Results are given in words; binding and its absence hold for the method and conditions named. Some entries that bind do so weakly or less than the wild type.

Sequences of proteins named here, by UniProt entry; tags and fusion partners are left off. A change or cut given only in a name is not applied to a line headed by its entry.
UniProt P15813: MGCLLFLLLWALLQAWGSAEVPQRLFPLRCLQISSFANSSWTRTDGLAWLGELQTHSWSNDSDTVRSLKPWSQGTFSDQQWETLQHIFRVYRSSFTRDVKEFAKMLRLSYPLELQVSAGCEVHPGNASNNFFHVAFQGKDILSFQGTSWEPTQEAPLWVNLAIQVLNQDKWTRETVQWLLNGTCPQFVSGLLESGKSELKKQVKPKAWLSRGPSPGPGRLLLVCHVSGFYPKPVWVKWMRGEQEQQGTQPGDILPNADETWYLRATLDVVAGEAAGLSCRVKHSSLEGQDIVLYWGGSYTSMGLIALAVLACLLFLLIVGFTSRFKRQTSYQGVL

Biological target: CD1d tetramer loaded with α-GalCer (MBL TS-HCG-1) (UniProt P15813)
Experiment: tetramer staining of TCR-knockout NFAT-Luc Jurkat cells transduced with the TCR

B1: control iTCR (disclosed iNKT TCR) (TCR, V domains shown)
V domain 1: RGNGKNQVEQSPQSLIILEGKNCTLQCNYTVSPFSNLRWYKQDTGRGPVSLTIMTFSENTKSNGRYTATLDADTKQSSLHITASQLSDSASYICVVSDRGSTLGRLYFGRGTQLTVWP
V domain 2: DIYQTPRYLVIGTGKKITLECSQTMGHDKMYWYQQDPGMELHLIHYSYGVNSTEKGDLSSESTVSRIRTEHFPLTLESARPSHTSQYLCASSEGGGLKLAKNIQYFGAGTRLSVLE
B1 was tested, and the binding was “binds”.
